These results are taken from doi:10.1101/247882 (bioRxiv, 2018).

These are yes or no findings as the source states them, for the method shown. Binding can be weak; no strength is given.

The assay deals with T1, Synechocystis OCP with amino acid substitutions Y201A and W288A, holoprotein (Synechocystis sp. PCC 6803) (UniProt P74102).
T1 sequence: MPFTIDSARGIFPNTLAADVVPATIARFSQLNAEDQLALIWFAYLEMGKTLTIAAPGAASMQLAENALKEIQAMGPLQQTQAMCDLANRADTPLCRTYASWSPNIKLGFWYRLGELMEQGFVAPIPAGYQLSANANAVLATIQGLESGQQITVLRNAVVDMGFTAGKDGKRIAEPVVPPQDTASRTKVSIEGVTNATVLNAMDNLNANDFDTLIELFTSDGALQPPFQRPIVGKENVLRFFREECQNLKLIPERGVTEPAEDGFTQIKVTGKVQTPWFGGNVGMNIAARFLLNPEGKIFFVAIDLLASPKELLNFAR
Nature of the assay: SEC.

Turning to “Anabaena variabilis FRP (from UniProt Q3M6D9)”, the binding entry was “binds”.
With “Arthrospira maxima FRP (from UniProt B5W3T4)”, the binding entry is given as “binds”.
